# Some of the results follow. At the low end of the ranking, values are background and their order means little.
# Molecular target: T1, PUM1 PUF domain R1-QFR R2-VFQ R7-NPG S863Q + R864F + Q867R + N899V + Y900F + S1079N + N1080P + E1083G (UniProt Q14671)
# T1 sequence: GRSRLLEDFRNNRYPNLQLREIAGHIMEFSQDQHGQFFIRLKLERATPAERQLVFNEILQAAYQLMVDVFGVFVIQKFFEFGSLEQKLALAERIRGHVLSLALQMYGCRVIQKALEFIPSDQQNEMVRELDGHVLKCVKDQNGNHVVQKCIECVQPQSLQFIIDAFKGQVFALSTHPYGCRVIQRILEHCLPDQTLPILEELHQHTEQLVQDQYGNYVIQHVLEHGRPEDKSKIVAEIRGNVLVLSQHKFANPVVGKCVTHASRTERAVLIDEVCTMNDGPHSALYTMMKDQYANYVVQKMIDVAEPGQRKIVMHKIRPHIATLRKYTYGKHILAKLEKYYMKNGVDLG
# Conditions: yeast three-hybrid, YBZ-1, SC-Leu-His + 0.5 mM 3-AT, 4 days
row,Sequence,binding signal (log2 enrichment (interaction score))
1,GGCUAGAACUAGUGGAUCCCCCGGCGCCCGGCGGCUCGAGCCCGGGUAAGUUUAAGUGGUCUGCAUGCCGCCGGGCGCCAUGCCUGCAGGUCGACUCUAGAAAACAUG,-6
2,GGCUAGAACUAGUGGAUCCCCCGGCGCCCGGCGGCUCGAGCCCGGGUAAGGUGAGAUUGUCUGCAUGCCGCCGGGCGCCAUGCCUGCAGGUCGACUCUAGAAAACAUG,-5.33
3,GGCUAGAACUAGUGGAUCCCCCGGCGCCCGGCGGCUCGAGCCCGGGUAAGUUUCCAAAGUCUGCAUGCCGCCGGGCGCCAUGCCUGCAGGUCGACUCUAGAAAACAUG,< -6.25
4,GGCUAGAACUAGUGGAUCCCCCGGCGCCCGGCGGCUCGAGCCCGGGUAAGUGGAAGUGGUCUGCAUGCCGCCGGGCGCCAUGCCUGCAGGUCGACUCUAGAAAACAUG,-5.69
5,GGCUAGAACUAGUGGAUCCCCCGGCGCCCGGCGGCUCGAGCCCGGGUAAGGUUACGUCGUCUGCAUGCCGCCGGGCGCCAUGCCUGCAGGUCGACUCUAGAAAACAUG,-6.2
6,GGCUAGAACUAGUGGAUCCCCCGGCGCCCGGCGGCUCGAGCCCGGGUAAGCGGCCACCGUCUGCAUGCCGCCGGGCGCCAUGCCUGCAGGUCGACUCUAGAAAACAUG,-5.72
7,GGCUAGAACUAGUGGAUCCCCCGGCGCCCGGCGGCUCGAGCCCGGGUAAGACUACCUAGUCUGCAUGCCGCCGGGCGCCAUGCCUGCAGGUCGACUCUAGAAAACAUG,-5.06
8,GGCUAGAACUAGUGGAUCCCCCGGCGCCCGGCGGCUCGAGCCCGGGUAAGACUAAACAGUCUGCAUGCCGCCGGGCGCCAUGCCUGCAGGUCGACUCUAGAAAACAUG,-6.69
9,GGCUAGAACUAGUGGAUCCCCCGGCGCCCGGCGGCUCGAGCCCGGGUAAGUACACGGCGUCUGCAUGCCGCCGGGCGCCAUGCCUGCAGGUCGACUCUAGAAAACAUG,-5.38
10,GGCUAGAACUAGUGGAUCCCCCGGCGCCCGGCGGCUCGAGCCCGGGUAAGCUUUAAGAGUCUGCAUGCCGCCGGGCGCCAUGCCUGCAGGUCGACUCUAGAAAACAUG,< -6.74
11,GGCUAGAACUAGUGGAUCCCCCGGCGCCCGGCGGCUCGAGCCCGGGUAAGUUUUAUAAGUCUGCAUGCCGCCGGGCGCCAUGCCUGCAGGUCGACUCUAGAAAACAUG,-5.95
12,GGCUAGAACUAGUGGAUCCCCCGGCGCCCGGCGGCUCGAGCCCGGGUAAGGUGAAGAUGUCUGCAUGCCGCCGGGCGCCAUGCCUGCAGGUCGACUCUAGAAAACAUG,-6.78
13,GGCUAGAACUAGUGGAUCCCCCGGCGCCCGGCGGCUCGAGCCCGGGUAAGUCUAAAACGUCUGCAUGCCGCCGGGCGCCAUGCCUGCAGGUCGACUCUAGAAAACAUG,-2.45
14,GGCUAGAACUAGUGGAUCCCCCGGCGCCCGGCGGCUCGAGCCCGGGUAAGGGGAGGGCGUCUGCAUGCCGCCGGGCGCCAUGCCUGCAGGUCGACUCUAGAAAACAUG,-5.88
15,GGCUAGAACUAGUGGAUCCCCCGGCGCCCGGCGGCUCGAGCCCGGGUAAGUUGGUGAAGUCUGCAUGCCGCCGGGCGCCAUGCCUGCAGGUCGACUCUAGAAAACAUG,< -5.16
16,GGCUAGAACUAGUGGAUCCCCCGGCGCCCGGCGGCUCGAGCCCGGGUAAGUUUAAUAUGUCUGCAUGCCGCCGGGCGCCAUGCCUGCAGGUCGACUCUAGAAAACAUG,-6.38
17,GGCUAGAACUAGUGGAUCCCCCGGCGCCCGGCGGCUCGAGCCCGGGUAAGAAGAAGAAGUCUGCAUGCCGCCGGGCGCCAUGCCUGCAGGUCGACUCUAGAAAACAUG,-5.13
18,GGCUAGAACUAGUGGAUCCCCCGGCGCCCGGCGGCUCGAGCCCGGGUAAGUCGAACAAGUCUGCAUGCCGCCGGGCGCCAUGCCUGCAGGUCGACUCUAGAAAACAUG,-5.66
19,GGCUAGAACUAGUGGAUCCCCCGGCGCCCGGCGGCUCGAGCCCGGGUAAGAUUUAAUCGUCUGCAUGCCGCCGGGCGCCAUGCCUGCAGGUCGACUCUAGAAAACAUG,< -5.42
20,GGCUAGAACUAGUGGAUCCCCCGGCGCCCGGCGGCUCGAGCCCGGGUAAGGUGGCGACGUCUGCAUGCCGCCGGGCGCCAUGCCUGCAGGUCGACUCUAGAAAACAUG,< -5.13
21,GGCUAGAACUAGUGGAUCCCCCGGCGCCCGGCGGCUCGAGCCCGGGUAAGGUGUGGUGGUCUGCAUGCCGCCGGGCGCCAUGCCUGCAGGUCGACUCUAGAAAACAUG,-5.45
22,GGCUAGAACUAGUGGAUCCCCCGGCGCCCGGCGGCUCGAGCCCGGGUAAGUUGGAUGUGUCUGCAUGCCGCCGGGCGCCAUGCCUGCAGGUCGACUCUAGAAAACAUG,< -5.99

# From no. 8 up to 9, copied from above:
row,Sequence,binding signal (log2 enrichment (interaction score))
8,GGCUAGAACUAGUGGAUCCCCCGGCGCCCGGCGGCUCGAGCCCGGGUAAGACUAAACAGUCUGCAUGCCGCCGGGCGCCAUGCCUGCAGGUCGACUCUAGAAAACAUG,-6.69
9,GGCUAGAACUAGUGGAUCCCCCGGCGCCCGGCGGCUCGAGCCCGGGUAAGUACACGGCGUCUGCAUGCCGCCGGGCGCCAUGCCUGCAGGUCGACUCUAGAAAACAUG,-5.38

# Source: article PMC8384837
